Source: publication PMC8338941
No constants are given. Whether binding was seen depends on the method and setting. Binding seen in cells or lysates may run through a third protein. Some entries that bind do so weakly or less than the wild type.

Biological target: T1, Nop7-TAP (S. cerevisiae) (UniProt P53261)
T1 sequence: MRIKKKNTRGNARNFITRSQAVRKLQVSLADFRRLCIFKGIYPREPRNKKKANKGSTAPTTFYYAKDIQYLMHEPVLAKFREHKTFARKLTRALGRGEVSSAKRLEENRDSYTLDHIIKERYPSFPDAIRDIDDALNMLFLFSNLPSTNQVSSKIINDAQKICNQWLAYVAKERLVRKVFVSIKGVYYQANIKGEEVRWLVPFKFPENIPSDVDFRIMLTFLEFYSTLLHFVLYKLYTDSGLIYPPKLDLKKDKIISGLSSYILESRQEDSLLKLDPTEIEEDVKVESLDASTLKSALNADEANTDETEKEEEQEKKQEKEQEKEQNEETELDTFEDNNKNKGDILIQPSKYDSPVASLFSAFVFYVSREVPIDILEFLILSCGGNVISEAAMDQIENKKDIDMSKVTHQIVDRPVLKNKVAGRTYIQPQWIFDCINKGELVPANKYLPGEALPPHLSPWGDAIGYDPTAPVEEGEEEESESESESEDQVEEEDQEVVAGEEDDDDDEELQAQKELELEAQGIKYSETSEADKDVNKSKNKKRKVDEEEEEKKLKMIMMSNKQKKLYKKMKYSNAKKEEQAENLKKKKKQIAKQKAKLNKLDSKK
Assay: co-IP; Nop7-TAP particles isolated from WT and puf6∆ cells grown at 20 °C; NuPAGE 4-12% Bis-Tris gel, Silver staining and Western analysis

B1: Sda1 (protein, UniProt P53313 1-767)
chain: MGRRSRAAMLPTNIILLQNLVKRDPESYQEEFLQQYAHYESLRDIFMLNGLAGGDSAAATNGLDVGNGSSTMAGTNGTTMSTSTSQLIELVGFVSQVCSCFPRETANFPSELKQLLLEHHKSLPFELKEKILSCLTMLRNKDVITAEELIQSLFPLLVAYSSHGNSLGVNSHAKELRKIIYTNLISLLKSCNTNGKNQKLNKSTQAVCFNLLDQPDSQGIWATKLTRELWRRGIWDDSRTVEIMTQAALHQDVKIVMSGVMFFLDADREREENFEENSEDEDGFDLDALRHKMQVNKKTGRRGKKLENAIKTVKKKKKNGPGAPQGYLNFSAIHLLRDPQGFAEKLFKEHLSGKTKNKFDMEQKISLMQLLSRLIGTHKLIVLGIYTFFLKYLTPKQRDVTRIMSACAQACHDLVPPEVINVMVRKIADEFVSDGVANEVAAAGINTIREICSRAPLAIDEILLQDLVEYKGSKAKGVNMAAKSLIALYRDVAPEMLKKKDRGKNAAMEVQEAKKGGKDSKRPQFGADNSVQGIAGIELLAKWKKEHGEESENEDADANWEVDVDSEEDDVDGEWVTMDSDKEYDVDMEDSDDEKDNAKGKESDSDLELSDDDDEKEVKDEQEDADIDPEAAFREIASTRILTPADFAKLQELRNEESVAKIMGIHKQDKREELVDASTLTGPIKYKQSREERLQKVLEGREGRDKFGSRRGKRDNMRSTTNREKERRKNFVMSIHKRSVRGKQKMSLRDKQKVLRAHITKQKKKGY
For B1, the binding was “binds”.
